{"source": "paper PMC2840025", "biological_target": "T1, EGFP fusion of AGS3 (Activator of G protein Signaling 3) (UniProt Q9R080)", "T1 sequence": "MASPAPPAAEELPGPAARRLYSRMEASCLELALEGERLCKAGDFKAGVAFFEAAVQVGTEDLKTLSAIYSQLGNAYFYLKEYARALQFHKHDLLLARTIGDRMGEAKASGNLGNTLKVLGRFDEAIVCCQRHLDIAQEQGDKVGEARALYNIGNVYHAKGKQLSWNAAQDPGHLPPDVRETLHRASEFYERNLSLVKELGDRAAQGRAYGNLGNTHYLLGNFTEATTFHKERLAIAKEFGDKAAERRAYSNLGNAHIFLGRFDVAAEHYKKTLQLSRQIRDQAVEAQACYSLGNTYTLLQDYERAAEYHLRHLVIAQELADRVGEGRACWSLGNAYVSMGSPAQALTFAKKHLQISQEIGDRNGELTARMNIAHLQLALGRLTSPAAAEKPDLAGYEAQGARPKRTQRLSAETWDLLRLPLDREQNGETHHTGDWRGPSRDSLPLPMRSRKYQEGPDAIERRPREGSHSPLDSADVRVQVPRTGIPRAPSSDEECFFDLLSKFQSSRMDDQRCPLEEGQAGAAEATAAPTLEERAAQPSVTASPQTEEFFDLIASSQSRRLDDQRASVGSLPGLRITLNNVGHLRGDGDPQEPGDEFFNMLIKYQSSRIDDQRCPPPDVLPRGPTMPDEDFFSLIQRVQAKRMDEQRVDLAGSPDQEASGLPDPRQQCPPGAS", "assay": "affinity purification with mass spectrometry; anti-GFP magnetic microbeads, Flp-In CV-1 stable cells, stringent wash (650 mM NaCl, 1% Igepal CA-630, 0.5% sodium deoxycholate, 0.1% SDS, 50 mM Tris-HCl pH 8.0); band excised from SDS-PAGE, tandem mass spectrometry", "note": "No constants are given. Whether binding was seen depends on the method and setting. Binding seen in cells or lysates may run through a third protein. A yes stands for co-enrichment or nearness to the bait. Other partners may have been found. Where a sequence is shown, tags or fusion partners need not be part of it."}
{"substance": "USP9x (Ubiquitin Specific Protease 9x), endogenous in monkey cell lines (enzyme)", "values": [{"measurement": "binding", "result": "binds"}]}
